Source: PubChem BioAssay AID483 (Columbia University Molecular Screening Center, 2006)
The other results are listed elsewhere or left out.

experiment: reduction of polyQ htt aggregates in cells – imaging, exon1htt(103Q)mCFP cells, high-content imaging, primary screen (AID 483); conditions: exon1htt(103Q)mCFP cell line, aggregate imaging; measured here: cell count, toxicity; at 2 µM;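 also: compound exposure lasted 3 days before fixation; percent of the per-plate median nuclei count of sample wells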

Compound	nuclei count
Fc1ccccc1NC1CCN(Cc2ccccc2)CC1	99.2%
